PubChem BioAssay AID493246, Drosophila RNAi Screening Center | 2011

Test: 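Genes fly cells need to grow and stay alive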 (primary screen)
System: Drosophila Kc and S2R+ cells
Reagents: long dsRNA against Drosophila genes
Detection: 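Raw, unnormalised count of remaining cells in each well; per-plate z-scores of cell number underlie the calls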
Direction: Kc cell number and S2R+ cell number: higher = more cells remaining
Rule for the call: 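Active when the per-plate z-score of cell number is 3 or more in the direction of fewer cells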
The deposit covers about 21,000 reagents; below is an unselected part of those that have a named target and a result. Over the whole deposit, 429 (2%) were called active. 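Values are raw and not normalised between plates; calls rest on per-plate z-scores that were not deposited.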 Not stated in the record: the amount of reagent, the time to read-out.

CG7272 [DRSC10795] | Kc cell number, rep 1: 1.45e6; Kc cell number, rep 2: 1.55e6; S2R+ cell number, rep 1: 1.33e6; S2R+ cell number, rep 2: 1.38e6; activity call: inactive
CIAPIN1 [DRSC03559] | Kc cell number, rep 1: 1.32e6; Kc cell number, rep 2: 1.40e6; S2R+ cell number, rep 1: 1.23e6; S2R+ cell number, rep 2: 1.28e6; activity call: inactive
CG32436 [DRSC11683] | Kc cell number, rep 1: 1.65e6; Kc cell number, rep 2: 2.00e6; S2R+ cell number, rep 1: 1.24e6; S2R+ cell number, rep 2: 1.38e6; activity call: inactive
CG32436 [DRSC11796] | Kc cell number, rep 1: 1.46e6; Kc cell number, rep 2: 1.64e6; S2R+ cell number, rep 1: 1.21e6; S2R+ cell number, rep 2: 1.32e6; activity call: inactive
Cpr97Ea [DRSC15974] | Kc cell number, rep 1: 1.40e6; Kc cell number, rep 2: 1.45e6; S2R+ cell number, rep 1: 9.64e5; S2R+ cell number, rep 2: 1.09e6; activity call: inactive
DCTN4-p62 [DRSC06101] | Kc cell number, rep 1: 9.31e5; Kc cell number, rep 2: 9.68e5; S2R+ cell number, rep 1: 7.64e5; S2R+ cell number, rep 2: 6.60e5; activity call: inactive
Ant2 [DRSC19330] | Kc cell number, rep 1: 5.43e5; S2R+ cell number, rep 1: 7.43e5; activity call: inactive
chp [DRSC16925] | Kc cell number, rep 1: 4.67e5; S2R+ cell number, rep 1: 7.69e5; activity call: inactive
CG8036 [DRSC16366] | Kc cell number, rep 1: 1.29e6; Kc cell number, rep 2: 1.38e6; S2R+ cell number, rep 1: 1.19e6; S2R+ cell number, rep 2: 1.32e6; activity call: inactive
LysS [DRSC08677] | Kc cell number, rep 1: 1.55e6; Kc cell number, rep 2: 1.44e6; S2R+ cell number, rep 1: 9.74e5; S2R+ cell number, rep 2: 1.36e6; activity call: inactive

Looked up above:
Result of CG8036 [DRSC16366] in “Kc cell number, rep 1”: 1.29e6
CG32436 [DRSC11683], S2R+ cell number, rep 2 = 1.38e6
Value for CG32436 [DRSC11796] in “S2R+ cell number, rep 1”: 1.21e6

The listing continues:
CG7135 [DRSC20026] | Kc cell number, rep 1: 1.69e6; Kc cell number, rep 2: 1.65e6; S2R+ cell number, rep 1: 1.15e6; S2R+ cell number, rep 2: 1.29e6; activity call: inactive
CG5112 [DRSC15718] | Kc cell number, rep 1: 5.22e5; S2R+ cell number, rep 1: 6.90e5; activity call: inactive
CG34030 [DRSC08866] | Kc cell number, rep 1: 1.48e6; Kc cell number, rep 2: 1.74e6; S2R+ cell number, rep 1: 1.15e6; S2R+ cell number, rep 2: 1.29e6; activity call: inactive
PsGEF [DRSC18596] | Kc cell number, rep 1: 1.48e6; Kc cell number, rep 2: 1.49e6; S2R+ cell number, rep 1: 8.75e5; S2R+ cell number, rep 2: 1.01e6; activity call: inactive
Prp4k [DRSC08144] | Kc cell number, rep 1: 1.35e6; Kc cell number, rep 2: 1.39e6; S2R+ cell number, rep 1: 1.30e6; S2R+ cell number, rep 2: 1.26e6; activity call: inactive
Zip99C [DRSC16320] | Kc cell number, rep 1: 5.44e5; S2R+ cell number, rep 1: 8.73e5; activity call: inactive
pdm2 [DRSC02496] | Kc cell number, rep 1: 1.56e6; Kc cell number, rep 2: 1.60e6; S2R+ cell number, rep 1: 1.16e6; S2R+ cell number, rep 2: 1.30e6; activity call: inactive
pdm2 [DRSC02497] | Kc cell number, rep 1: 1.55e6; Kc cell number, rep 2: 1.56e6; S2R+ cell number, rep 1: 1.10e6; S2R+ cell number, rep 2: 1.24e6; activity call: inactive
pdm2 [DRSC03587] | Kc cell number, rep 1: 1.41e6; Kc cell number, rep 2: 1.51e6; S2R+ cell number, rep 1: 1.23e6; S2R+ cell number, rep 2: 1.38e6; activity call: inactive
Acp76A [DRSC09665] | Kc cell number, rep 1: 1.56e6; Kc cell number, rep 2: 1.78e6; S2R+ cell number, rep 1: 1.16e6; S2R+ cell number, rep 2: 1.32e6; activity call: inactive
Mal-A6 [DRSC07233] | Kc cell number, rep 1: 1.71e6; Kc cell number, rep 2: 1.66e6; S2R+ cell number, rep 1: 1.37e6; S2R+ cell number, rep 2: 1.51e6; activity call: inactive
